Numbering of substitutions follows the chain as printed. No constants are given. Whether binding was seen depends on the method and setting. In cells and extracts the contact can be indirect. For some assays here: Tags and fused reporters may be left off the sequences shown.
B1: α-dystrobrevin (protein, UniProt Q9Y4J8 1-743)
chain: MIEDSGKRGNTMAERRQLFAEMRAQDLDRIRLSTYRTACKLRFVQKKCNLHLVDIWNVIEALRENALNNLDPNTELNVSRLEAVLSTIFYQLNKRMPTTHQIHVEQSISLLLNFLLAAFDPEGHGKISVFAVKMALATLCGGKIMDKLRYIFSMISDSSGVMVYGRYDQFLREVLKLPTAVFEGPSFGYTEQSARSCFSQQKKVTLNGFLDTLMSDPPPQCLVWLPLLHRLANVENVFHPVECSYCHSESMMGFRYRCQQCHNYQLCQDCFWRGHAGGSHSNQHQMKEYTSWKSPAKKLTNALSKSLSCASSREPLHPMFPDQPEKPLNLAHIVDTWPPRPVTSMNDTLFSHSVPSSGSPFITRSSPPKDSEVEQNKLLARAAPAFLKGKGIQYSLNVADRLADEHVLIGLYVNMLRNNPSCMLESSNRLDEEHRLIARYAARLAAESSSSQPPQQRSAPDISFTIDANKQQRQLIAELENKNREILQEIQRLRLEHEQASQPTPEKAQQNPTLLAELRLLRQRKDELEQRMSALQESRRELMVQLEGLMKLLKTQGAGSPRSSPSHTISRPIPMPIRSASACSTPTHTPQDSLTGVGGDVQEAFAQSSRRNLRNDLLVAADSITNTMSSLVKELNSEVGSETESNVDSEFARTQFEDLVPSPTSEKAFLAQIHARKPGYIHSGATTSTMRGDMVTEDADPYVQPEDENYENDSVRQLENELQMEEYLKQKLQDEAYQVSLQG

Tests used:
[1] = target: T1, GFP::SNTB2^GLGI4A (human) (UniProt Q13425); experiment: co-IP; GFP-tagged β-2-syntrophin (GFP::SNTB2) variants co-expressed with mCherry::SseM in SNTB2 KO1 HEK293 cells; GFP-trap immunoprecipitation, immunoblot
T1 sequence: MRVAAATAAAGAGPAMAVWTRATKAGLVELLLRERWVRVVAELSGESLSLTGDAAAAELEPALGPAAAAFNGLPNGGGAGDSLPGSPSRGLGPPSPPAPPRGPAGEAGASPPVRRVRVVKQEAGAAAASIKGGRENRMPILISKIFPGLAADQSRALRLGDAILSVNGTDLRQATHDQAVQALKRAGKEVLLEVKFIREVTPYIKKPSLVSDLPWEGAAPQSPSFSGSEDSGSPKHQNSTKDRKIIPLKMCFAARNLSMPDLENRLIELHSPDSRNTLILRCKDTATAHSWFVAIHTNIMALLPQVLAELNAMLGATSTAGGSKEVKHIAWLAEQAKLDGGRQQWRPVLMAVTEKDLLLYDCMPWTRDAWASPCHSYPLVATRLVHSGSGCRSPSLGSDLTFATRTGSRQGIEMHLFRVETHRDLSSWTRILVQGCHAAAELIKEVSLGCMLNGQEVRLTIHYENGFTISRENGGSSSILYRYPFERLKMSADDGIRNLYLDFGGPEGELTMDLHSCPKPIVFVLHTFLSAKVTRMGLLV

GFP::SNTB2^H176V (human) = target: T2, GFP::SNTB2^H176V (human) (UniProt Q13425); experiment: as above
T2 sequence: T1 sequence with A125G, A126L, A127G, A128I, H176V

GFP::SNTB2^H176Y (human) = target: T3, GFP::SNTB2^H176Y (human) (UniProt Q13425); experiment: as above
T3 sequence: T1 sequence with A125G, A126L, A127G, A128I, H176Y

[2] = target: GFP::SseM^RE2A (Salmonella enterica serovar Typhimurium strain 12023); experiment: co-IP; GFP-trap agarose on lysates of HEK293 cells transiently transfected (16 h) with GFP-tagged SseM variants; immunoblot for endogenous β-2-syntrophin and α-dystrobrevin
[3] = target: GFP::SseM-HA (Salmonella enterica serovar Typhimurium strain 12023); experiment: as above

Molecule | binding [1] | binding (GFP::SNTB2^H176V (human)) | binding (GFP::SNTB2^H176Y (human)) | binding [2] | binding [3]
mCherry::SseM (Salmonella enterica serovar Typhimurium) | no binding | no binding | no binding |  | 
B1 |  |  |  | no binding | no binding
